Results from article PMC10167378.
Results are given in words; binding and its absence hold for the method and conditions named. Binding seen in cells or lysates may run through a third protein. Some results given as binding are weak or reduced against the parent protein; the word gives no strength.

Amino acid sequences for entries named in this document (tags omitted).
UniProt P63018: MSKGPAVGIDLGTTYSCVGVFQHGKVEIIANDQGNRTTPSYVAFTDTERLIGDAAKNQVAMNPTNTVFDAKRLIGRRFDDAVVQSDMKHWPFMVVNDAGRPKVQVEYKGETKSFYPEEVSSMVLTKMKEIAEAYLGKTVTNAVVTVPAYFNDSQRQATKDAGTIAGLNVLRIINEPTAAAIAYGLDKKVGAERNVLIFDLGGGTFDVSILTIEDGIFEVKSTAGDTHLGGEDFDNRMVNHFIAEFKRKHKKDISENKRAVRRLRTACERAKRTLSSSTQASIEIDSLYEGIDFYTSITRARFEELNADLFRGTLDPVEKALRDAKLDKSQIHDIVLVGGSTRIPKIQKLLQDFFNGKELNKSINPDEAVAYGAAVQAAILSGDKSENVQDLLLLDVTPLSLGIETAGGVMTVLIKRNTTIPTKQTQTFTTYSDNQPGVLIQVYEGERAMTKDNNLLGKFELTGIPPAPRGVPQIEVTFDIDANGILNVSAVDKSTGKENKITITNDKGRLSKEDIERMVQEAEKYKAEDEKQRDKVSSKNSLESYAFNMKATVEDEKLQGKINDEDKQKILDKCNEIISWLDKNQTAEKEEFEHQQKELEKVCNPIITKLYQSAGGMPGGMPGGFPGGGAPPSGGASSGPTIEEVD

Target: HSC70 (UniProt P63018)
Experiment: co-IP; IP of HSC70, blotted for APAF1, with Cdyl2-60aa overexpression; cells not named (Supplementary Fig. 4h)

binding: binds
B1: apoptotic protease activating factor-1 (APAF1) (protein, UniProt Q9EPV5 1-1249)
chain: MDAKARNCLLQHKEALEKDIKTSYIMDHMISNGVLTVVEEEKVKSQATQYQRAAALIKMILNKDNYAYISFYNALLHEGYKDLAGLLHSGLPLVSSSSGKDTDGGNTSFVRTVLCEGGVPQRPVIFVTRKKLVSAIQQKLWKLNGEPGWVTIYGMAGCGKSVLAAEAVRDHALLEGCFSGGVHWVSIGKQDKSGLLMKLQNLCTRLGQEESFSQRLPLNIEEAKDRLRVLMLRKHPRSLLILDDVWDPWVLKAFDNQCQILLTTRDKSVTDSVMGPKYVIPVESGLGKEKGLEILSLFVNMKKEDLPVEAHSIIKECKGSPLVVSLVGALLRDFPNRWAYYLRQLQNKQFKRIRKSSSYDYEALDEAMSISVEMLREDIKDYYTDLSILQKDVKVPTKVLCVLWDLETEEVEDILQEFVNKSLLFCNRNGKSFCYYLHDLQVDFLTEKNRSQLQDLHRKMVTQFQRYHQPHTLSPGQEDCMYWYNFLAYHMASAGMHKELCALMFSLDWIKAKTELVGPAHLIHEFVEYRHILDEKDCAVCENFQEFLSLNGHLLGRQPFPNIVQLGLCEPETSEVYQQAKLQAKQEVDTGRLYLEWINKKTIKNLSRLVVRPHTDAVYHACFSQDGQRIASCGADKTLQVFKAETGEKLLDIKAHEDEVLCCAFSSDDSYIATCSVDKKVKIWDSGTGKLVHTYEEHSEQVNCCHFTNKSNHLLLATGSNDSFLKLWDLNQKECRNTMFGHTNSVTHCRFSPDDELLASCSADGTLKLWDVRSANEKKSINVKRFFLSSEDPPEDVEVIVKCCSWSADGDRIIVAAKNKVLLLDIHTSGLLTEIHTGHHSTIQYCDFSPYDHLAVIALSQYCVELWNIDSRVKVADCRGHLSWVHGVMFSPDGSSFLTASDDQTIRVWETRKVCKNSAIVLKQEIDVVFQENEMMVLAVDNIRGLQLIAGKTGQIDYLPEAQVSCCCLSPHLEYVAFGDEEGAIKIIELPNNRVFSSGIGHKKAVRHIQFTADGKTLISSSEDSVIQVWNWQTEEYVFLQAHQETVKDFRLLRDSRLLSWSFDGTVKVWNVITGRIERDFTCHQGTVLSCAISSDATKFSSTSADKTAKIWSFELPSPLHELKGHNSCVRCSAFSLDGILLATGDDNGEIRIWNVSDGQLLHLCAPISIEEGTATHGGWVTDVCFSPDRKMLVSAGGYLKWWNVVTGESSQTFYTNGTNLKKIHVSPDFRTYVTVDNLGILYILQVLE
